Values from PubChem BioAssay AID743454 (Peter MacCallum Cancer Centre, 2014).

- Aim: 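Knock-downs lowering viability or raising caspase 3/7 activity in vorinostat-treated resistant cells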 (primary screen)
- Cell system: human HCT116-VR colon cancer cells, selected for vorinostat resistance
- Reagent: siRNA pool against human genes, 40 nM siRNA pool
- Time to read-out: vorinostat for 24 h, read-out about 72 h after transfection
- Conditions: vorinostat at 2.5 µM final
- Measured: 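Two measures, CellTiter-Fluor viability and luminescent caspase 3/7 activity, each as fold change against same-plate mock wells, mean of duplicates, then screen-wide robust z-score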
- Direction: viability robust z-score: higher = more viable cells than screen typical; caspase robust z-score: higher = more caspase 3/7 activity than screen typical
- Active means: 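a knock-down is a hit when classed RV1 or RV2 for lowered viability, or CA1 or CA2 for caspase activation; those lethal without drug were dropped; hits were retested singly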
The deposit covers about 18,000 reagents; shown is an unselected part. 450 of them (2.5%) were called active. 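Single biological run; no consistent viability z cut-off exists, so the class columns, not z-scores, define the calls.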 A number with no mark means an inactive call.

gene symbol	viability hit class	caspase hit class	viability robust z-score	caspase robust z-score
RIOX1	no change	no change	0.22	-0.36
ZNF688	no change	no change	-0.88	-0.81
SGTA	no change	no change	0.36	-0.1
FKBP2	no change	no change	0.41	0.56
CSAD	no change	no change	-0.88	1.09
ZCCHC10	no change	no change	-1.29	1.25
MAMSTR	no change	no change	-0.45	0.06
SLC2A10	no change	no change	0.43	0.7
SAGE1	no change	no change	0.25	0

Part of the list above, limited to “viability robust z-score”.
CSAD: -0.88
ZCCHC10: -1.29

Additional entries follow:
gene symbol	viability hit class	caspase hit class	viability robust z-score	caspase robust z-score
NBPF11	no change	no change	0.14	-0.16
HRH2	no change	no change	-1.77	4.3
NRG2	no change	no change	-0.09	2.95
C3orf52	no change	no change	-0.52	-0.79
DRD5	no change	no change	0.52	-0.36
TXNL4A	no change	no change	-0.36	3.27
DNER	no change (active)	CA2 (caspase activation)	-2.54	5.98
SPP1	no change	no change	0.9	0.44
TRAT1	no change	no change	-0.03	-0.32
ALOX12	no change	no change	0.16	-0.63
ASIP	no change	no change	0.92	2.4
H4C9	no change	no change	-0.04	-0.28
APLNR	no change	no change	0.24	-0.3
MNX1	no change	no change	-0.88	0.78
